In paper PMC9743148 (Annals of oncology : official journal of the European …, 2020):

How the values were obtained:
[1] = system: advanced solid tumors; settings: one responder with iCCA with disease progression on prior infigratinib (BGJ398)
[2] = system: FGFR mutants resistant to ATP-competitive inhibitors; settings: cell line experiments; cited from earlier work
[3] = system: FGFR1–4; settings: in vitro; cited from earlier work

In the case of `C=CC(=O)N1CC[C@H](n2nc(C#Cc3cc(OC)cc(OC)c3)c3c(N)ncnc32)C1` [futibatinib], the “Duration of futibatinib treatment” value [1] is listed as 15.6 months, the “Inhibition of FGFR mutants resistant to ATP-competitive inhibitors” value [2] is listed as “nearly the same potency as wild-type FGFR” and the “Concentrations inhibiting all four FGFR subtypes” value [3] is listed as “subnanomolar”.
